Screen size: about 400,000 compounds; about 13,000 (3.2%) were called active. The inconclusive results got no clear call from the source; some entries with a clear call stand among them for comparison. The call rests on the fitted dose curve; in most records, active means well fitted cell-killing curve with a large enough effect; inconclusive means small, poorly fitted or top-dose-only effect, or effect the other way; inactive means flat fitted curve, though single readings scatter. Potencies beside an inconclusive call are fits to weak or partial responses and may not hold up.
test: qHTS assay for MDR1-selective chemotherapeutics: Primary screen using the drug-selected MDR subline cells KB-V1; settings: KB-V1 MDR cells viability, CellTiter-Glo, 72 h; activity change, negative = cytotoxicity: at 46.1 µM (top of the series); further: nearly all actives have a fitted effect of over 60% in size
Method in brief: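 KB-V1 MDR subline cells in DMEM (phenol-red free, 10% FBS) exposed to compounds in qHTS concentration series for 72 h at 37 degrees C. Viability read by CellTiter-Glo luminescence; concentration-effect curves fitted after normalization and correction.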
On the % scale 0 is the no-effect control and ±100 the full control effect; potency means the concentration at half of the fitted maximal effect.

SMILES | Potency | activity change, negative = cytotoxicity
Fc1ccc(COc2ccccc2CNCc2ccncc2)cc1 | inconclusive: 14.6 µM [cytotoxic, partial curve] | 
CCOC(=O)CSc1nc(COc2ccccc2)nc2ccccc12 | inconclusive: 29.1 µM [rising, single point] | 
COc1ccc(NC(=O)Cn2c(=O)n(CCC(=O)NCCc3ccc(OC)c(OC)c3)c(=O)c3ccccc32)cc1Cl | inconclusive: 23.1 µM [rising, single point] | 
Cc1nn(C)c(Cl)c1CN1CCCC(CO)(Cc2cccc(Cl)c2)C1 (stereo unspecified) |  | inactive: -30.5%
COc1cc(N)c(NC(=O)/C=C/c2nc3cc(OC)c(OC)cc3[nH]2)cc1OC |  | inactive: 6.64%
CCCCCNS(=O)(=O)c1ccc(N2CCCCS2(=O)=O)cc1 | inconclusive: 18.4 µM [cytotoxic, single point] | 
O=C(NC1CCCCC1)c1ccc2c(c1)S(=O)(=O)c1ccccc1C2=O | inconclusive: 29.1 µM [rising, partial curve, poor fit] | 
O=C(C1CC1)N1N=C(c2ccccc2)CC1(O)C(F)(F)C(F)(F)F (stereo unspecified) | inconclusive: 29.1 µM [rising, single point] | 
O=C(C1CCN(S(=O)(=O)c2ccccc2)CC1)N(CCc1ccccc1)Cc1ccco1 | inconclusive: 29.1 µM [cytotoxic, single point] | 
CC1CCC(NC(=O)CNC(=O)c2ccc3ccccc3c2)CC1 (stereo unspecified) | inconclusive: 20.6 µM [cytotoxic, single point] | 
Cc1cc(C)cc(NS(=O)(=O)c2ccc(NC(=O)C3CCCCC3C(=O)O)cc2)c1 (stereo unspecified) |  | inactive: 3.89%
CC(C)(C)NC(=O)Cn1c(=O)oc2cc(S(=O)(=O)N3CCc4ccccc43)ccc21 | inconclusive: 23.1 µM [cytotoxic, partial curve, poor fit] | 
CC(NC(=O)c1ccc(N2CCCC2)c([N+](=O)[O-])c1)c1ccc(S(N)(=O)=O)cc1 (stereo unspecified) | inconclusive: 29.1 µM [rising, single point] | 
Cc1ccc(S(=O)(=O)N2C[C@@H]3[C@H]4CC[C@H](C4)[C@@H]3[C@@H](C)[C@@H]2c2ccn([Si](C(C)C)(C(C)C)C(C)C)c2)cc1 |  | inactive: -3.89%
COc1ccc(OC)c2c(/C=C/c3c[nH]c4ccccc34)ccnc12 | inconclusive: 20.6 µM [cytotoxic, single point] | 
C/C=C1\NC(=O)[C@H](C)NC(=O)[C@@H](NC(=O)[C@@H](Cc2ccc(O)cc2)NC(=O)[C@@H](NC(=O)/C(C)=C/C)C(C)C)[C@@H](C)OC(=O)[C@H](CCCCc2ccc(O)cc2)NC(=O)[C@@H](CCC(=O)O)NC1=O |  | inactive: 0.0002%

From PubChem BioAssay AID1347076 (National Center for Advancing Translational Sciences (NCATS), 2019)
